Sequences of proteins named here, by UniProt entry; tags and fusion partners are left off.
UniProt P08684, whole entry: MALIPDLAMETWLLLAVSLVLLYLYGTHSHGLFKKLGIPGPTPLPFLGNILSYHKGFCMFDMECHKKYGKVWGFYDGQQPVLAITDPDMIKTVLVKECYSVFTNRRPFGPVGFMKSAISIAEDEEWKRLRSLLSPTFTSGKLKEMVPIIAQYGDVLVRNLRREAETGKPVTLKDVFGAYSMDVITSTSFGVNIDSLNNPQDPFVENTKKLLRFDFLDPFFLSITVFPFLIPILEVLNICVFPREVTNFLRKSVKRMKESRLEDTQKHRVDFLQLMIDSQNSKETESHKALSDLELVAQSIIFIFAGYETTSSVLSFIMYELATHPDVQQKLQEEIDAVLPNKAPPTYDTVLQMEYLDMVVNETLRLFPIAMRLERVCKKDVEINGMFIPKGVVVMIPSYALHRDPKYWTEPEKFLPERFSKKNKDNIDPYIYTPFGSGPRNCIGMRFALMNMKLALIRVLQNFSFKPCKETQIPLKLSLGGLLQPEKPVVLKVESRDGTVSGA

According to ChEMBL document CHEMBL1157752, “Lessons learned from herbal medicinal products: the example of St. John's Wort (perpendicular)” (J Nat Prod, 2010):

Target: Cytochrome P450 3A4 (Homo sapiens, UniProt P08684)

CC(C)=CCC[C@]1(C)[C@@H](CC=C(C)C)C[C@]2(CC=C(C)C)C(=O)C(CC=C(C)C)=C(O)[C@@]1(C(=O)C(C)C)C2=O
IC50: 2.3 µM
